Among the data in PMC7925596, “Exploring targeting peptide-shell interactions in encapsulin nanocompartments” (Scientific Reports, 2021) are binding values, retold here.

No constants are given. Whether binding was seen depends on the method and setting. Binding seen in cells or lysates may run through a third protein. Here binding means that the protein was enriched with, or labelled near, the bait; the list need not be complete. Sequences can lack the tags named with a protein.

Test [1] addresses Myxococcus xanthus encapsulin (T3 encapsulin shell) (M. xanthus) (UniProt Q1D6H4). The test can be described thus: co-purification of cargo with encapsulin particles (SDS-PAGE and in-gel tryptic digest mass spectrometry); cargo induced first (IPTG, 6 h), then encapsulin (L-arabinose, 18 h) in E. coli; particles purified by PEG-8000 precipitation, size exclusion (Sephacryl S-500) and anion exchange (DEAE); bands analysed by SDS-PAGE and MS. Background: SEC sorts molecules by how far they enter the pores of the column.

Test [2] has as its target Thermotoga maritima encapsulin (T1 encapsulin shell) (T. maritima) (UniProt Q9WZP2). Described as above.

B1: mNeonGreen C-terminally fused to the native T3 targeting peptide (peptide)
chain: PLTVGSLRRGG
notes: native 11-residue targeting peptide of the M. xanthus (T3) encapsulin system; The targeting peptide is at the C-terminus of mNeonGreen; also called mNeonGreenTP (native T3 TP); native T3 TP; source: E. coli One shot BL21 (DE3) Star, pCDF-Duet1, IPTG induced before encapsulin; co-purified with encapsulin particles; not shown: mNeonGreen, N-terminal, kept
As to B1, in test [1], the binding entry is recorded as “binds”.

B2: mNeonGreen C-terminally fused to the native T1 targeting peptide (peptide)
chain: NTGGDLGIRK
notes: native targeting peptide of the T. maritima (T1) encapsulin system, from the C-terminus of the native cargo protein; The targeting peptide is at the C-terminus of mNeonGreen; also called mNeonGreenTP (native T1 TP); native T1 TP; source: E. coli One shot BL21 (DE3) Star, pCDF-Duet1, IPTG induced before encapsulin; co-purified with encapsulin particles; not shown: mNeonGreen, N-terminal, kept
Turning to B2, the binding result in test [2] is given as “binds”.
